These are yes or no findings as the source states them, for the method shown. In cells and extracts the contact can be indirect. Some entries that bind do so weakly or less than the wild type.
Target: T1, RNA methyltransferase nucleolar protein p120 (NOP2) (human) (UniProt P46087)
T1 sequence: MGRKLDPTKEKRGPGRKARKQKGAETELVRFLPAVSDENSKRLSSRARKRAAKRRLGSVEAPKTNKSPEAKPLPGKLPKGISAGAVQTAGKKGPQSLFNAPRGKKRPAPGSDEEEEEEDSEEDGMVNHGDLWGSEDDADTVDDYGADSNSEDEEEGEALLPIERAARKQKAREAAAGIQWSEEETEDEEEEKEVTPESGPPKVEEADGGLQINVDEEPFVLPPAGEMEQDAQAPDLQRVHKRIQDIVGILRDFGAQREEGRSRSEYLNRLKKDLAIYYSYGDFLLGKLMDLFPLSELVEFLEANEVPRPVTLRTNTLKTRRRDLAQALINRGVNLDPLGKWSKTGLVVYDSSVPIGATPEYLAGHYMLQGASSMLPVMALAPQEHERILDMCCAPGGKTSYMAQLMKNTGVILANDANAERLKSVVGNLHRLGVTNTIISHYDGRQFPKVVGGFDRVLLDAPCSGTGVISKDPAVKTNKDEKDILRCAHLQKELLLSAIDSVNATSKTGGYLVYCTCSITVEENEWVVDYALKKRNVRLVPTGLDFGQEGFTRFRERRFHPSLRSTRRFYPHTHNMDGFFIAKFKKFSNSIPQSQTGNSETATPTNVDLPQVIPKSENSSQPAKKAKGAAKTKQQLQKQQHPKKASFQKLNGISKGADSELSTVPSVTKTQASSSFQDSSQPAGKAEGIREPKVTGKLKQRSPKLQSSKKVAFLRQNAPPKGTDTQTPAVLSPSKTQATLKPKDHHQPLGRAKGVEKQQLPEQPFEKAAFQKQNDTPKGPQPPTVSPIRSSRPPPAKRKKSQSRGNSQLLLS
Assay: co-IP; lysate of Hey cells overexpressing NOP2 and RAPGEF4; anti-NOP2 antibody (ab271075, 1:30) on Protein A+G magnetic beads, incubated overnight at 4°C; detected by Western blot

By UniProt entry, the sequences of proteins in these tests, tags left out.
UniProt Q8WZA2: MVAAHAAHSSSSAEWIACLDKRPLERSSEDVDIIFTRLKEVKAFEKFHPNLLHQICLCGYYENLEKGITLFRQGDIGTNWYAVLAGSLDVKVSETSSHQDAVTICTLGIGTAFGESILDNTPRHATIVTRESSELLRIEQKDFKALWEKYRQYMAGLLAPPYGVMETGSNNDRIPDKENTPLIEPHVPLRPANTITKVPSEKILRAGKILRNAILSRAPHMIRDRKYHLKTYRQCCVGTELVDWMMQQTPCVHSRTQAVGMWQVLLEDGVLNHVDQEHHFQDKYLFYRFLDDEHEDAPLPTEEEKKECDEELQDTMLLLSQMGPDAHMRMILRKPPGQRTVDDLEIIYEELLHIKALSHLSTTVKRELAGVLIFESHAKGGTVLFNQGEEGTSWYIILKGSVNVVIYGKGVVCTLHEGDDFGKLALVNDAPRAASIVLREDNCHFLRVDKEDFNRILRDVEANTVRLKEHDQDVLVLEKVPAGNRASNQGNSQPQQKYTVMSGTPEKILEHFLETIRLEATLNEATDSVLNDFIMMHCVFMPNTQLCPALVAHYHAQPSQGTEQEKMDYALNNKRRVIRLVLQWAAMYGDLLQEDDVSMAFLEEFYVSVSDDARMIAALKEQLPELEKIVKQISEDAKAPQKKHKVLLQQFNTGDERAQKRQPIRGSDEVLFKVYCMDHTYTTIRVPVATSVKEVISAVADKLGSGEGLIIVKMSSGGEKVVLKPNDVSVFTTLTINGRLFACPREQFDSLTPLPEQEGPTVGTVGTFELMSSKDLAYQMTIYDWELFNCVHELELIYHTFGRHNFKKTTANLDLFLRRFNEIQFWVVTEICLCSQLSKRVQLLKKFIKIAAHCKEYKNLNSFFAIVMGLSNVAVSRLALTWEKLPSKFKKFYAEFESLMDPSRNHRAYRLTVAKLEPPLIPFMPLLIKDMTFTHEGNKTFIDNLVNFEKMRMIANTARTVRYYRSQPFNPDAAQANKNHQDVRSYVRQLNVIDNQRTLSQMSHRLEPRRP

binding: binds
Substance: Rap guanine nucleotide exchange factor 4 (RAPGEF4) (from UniProt Q8WZA2 1-1011)

Source: article PMC10561575
